Consider 55 compounds from PubChem BioAssay AID2685 (National Center for Advancing Translational Sciences (NCATS), 2010).

The other results are listed elsewhere or left out. Further columns of the screen follow, without active or inactive calls. Most of these compounds were active or inconclusive in the main read-out, so they are no random draw. Potencies come from curve fits of mixed quality, noted in brackets.

The assay can be described thus: qHTS Assay for Lipid Storage Modulators in Drosophila S3 Cells.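 For cell number change: cells counted by Cell Tracker Red CMTPX staining in the red channel.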 The following applies: BODIPY lipid droplet fluorescence, 18-24 h; for cell number change: measured here: cell count max response, cells fed with added oleic acid. The gist of the method: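 Drosophila S3 cells loaded with oleic acid (400 uM, as added) and compounds at several concentrations; lipid droplets imaged by 488-nm laser-scanning cytometry, 500–530 nm intensity and object ratio to cell channel. Percent activity normalized to 20 uM Triacsin C.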
A general note: Quantitative high-throughput screening tests each substance at several concentrations.

[1] abbreviates: measured here: lipid fluorescence (Fed channel) AC50, cells fed with added oleic acid.
Setting [2] is: measured here: cell number channel AC50, cells fed with added oleic acid.

One may read the AC50 as the midpoint of the concentration-response curve, whichever way the signal moves. As for `COc1ccc(Cl)cc1NC(=O)c1nnn(CC(=O)Nc2ccc(OC)c(OC)c2)c1N`, the cell number change is 11.5%. In addition, the AC50 under setting [1] is 580 nM [rising, single point].

Regarding `COc1ccc(C(CNC(=O)c2oc3ccc(OC)cc3c2C)N2CCCC2)cc1` (configuration not stated), the AC50 is 3260 nM [falling, single point] under setting [2] and 184 nM [rising, full curve, poor fit] under setting [1].

Turning to `Cc1cc(-n2c(C)cc(C(=S)N3CCOCC3)c2C)ccc1Br`, the cell number change amounted to 26.6%. In addition, the AC50 under setting [1] is 7310 nM [rising, partial curve, poor fit].

For `Cc1nn(-c2ccc(F)cc2)c2c1cc(C#N)c1nc3ccccc3n12`, the AC50 is 103 nM [rising, full curve, poor fit] under setting [2] and 116 nM [rising, full curve, poor fit] under setting [1].

`CC(=O)Nc1cc(ON=C(C)C)cc([N+](=O)[O-])c1`: the cell number change was determined as 10.7%. Also, under setting [1], the AC50 is 18400 nM [rising, single point].

Turning to `O=C(Cc1c(O)c2ccccc2[nH]c1=O)NC1CCCCCCC1`, the cell number change worked out at 3.25%. For the same compound, the AC50 under setting [1] is 731 nM [falling, single point].

For `Nc1ccccc1-c1nc2ccccc2[nH]1`, under setting [1], the AC50 was 580 nM [rising, single point].

Turning to `COCCCNC(=O)Cc1ccccc1OC`, the cell number change is -6.03%. Under setting [1], the AC50 is 146 nM [falling, full curve, poor fit].

For the compound `O=C(NCCN1CCOCC1)c1cn(CCc2ccccc2)nn1`, the cell number change was 2.65%.

On to `O=C(COC(=O)[C@H](Cc1ccccc1)NC(=O)c1cccs1)NC1CCCCC1`, for which the cell number change worked out at 16.6%. Under setting [1], the AC50 is 10300 nM [rising, partial curve, poor fit].

Regarding `CCCCN1C(=O)C2C(c3ccc(OC)cc3O)NC(CC(C)C)(C(=O)O)C2C1=O` (configuration not stated), the cell number change came to 1.03%.

For `NCCCC[C@@H]1NC(=O)c2cc([N+](=O)[O-])cc(I)c2SC[C@@H](C(N)=O)NC(=O)[C@H](Cc2ccc(O)cc2)NC1=O`, the AC50 under setting [1] is 58 nM [falling, full curve, poor fit].

Take `CC(NC(=O)CN1CCN(CC(=O)Nc2ccccc2Cl)CC1)c1ccc(Br)cc1` (configuration not stated): the cell number change was determined as 6.89%.

As for `Cc1ccccc1-c1noc(CNC(=O)COc2ccccc2)n1`, the cell number change came out at 10.1%. Also, the AC50 under setting [1] is 651 nM [rising, single point].

Regarding `O=C(O)C[C@]1(C(=O)Nc2ccc(F)cc2)CC(/C=C/c2ccccc2)=NO1`, the cell number change came out at 44.4%. Besides, the AC50 under setting [2] is 29100 nM [rising, single point].

Regarding `Cc1ccc(-c2nc3c(c(=O)[nH]c(=O)n3Cc3ccccc3)n2C)o1`, the cell number change is -29.2%.

As for `COc1cccc(CNC(=O)C(=O)NCCC2CCCCN2S(=O)(=O)c2cccs2)c1` (configuration not stated), the cell number change was determined as 18%. Besides, the AC50 under setting [1] is 13000 nM [rising, partial curve].

Consider `Cc1ccccc1-n1c(SCc2cc(=O)n3ccccc3n2)nc2[nH]ncc2c1=O`, for which the cell number change amounted to 3.71%. Also, under setting [1], the AC50 was 130 nM [falling, full curve, poor fit].

Take `Cc1ccc(OCC(O)Cn2c(=N)n(Cc3ccccc3)c3ccccc32)cc1` (configuration not stated): the cell number change is -87%. Also, the AC50 under setting [2] was 29100 nM [falling, single point]. The concentration at half-maximal activity (AC50) under setting [1] is 29100 nM [falling, single point].

For `CCOC(=O)N1CCC(n2c(=S)[nH]c3cc(OCC)c(OCC)cc3c2=O)CC1`, the AC50 under setting [2] was 2310 nM [rising, partial curve].

As for `COc1ccc(CCC(=O)NNC(=O)c2ccc(OC)cc2)cc1`, the cell number change is 6.67%. Further, under setting [2], the AC50 is 6.51 nM [rising, full curve, poor fit].

Turning to `COc1ccc(NC(=O)CCCCCN2C(=O)CCC2=O)cc1Cl`, the cell number change was determined as 12.9%. Moreover, the AC50 under setting [2] was 2590 nM [rising, single point]. Besides, the AC50 under setting [1] was 4110 nM [rising, single point].

As for `CCOc1ccc(-n2nnnc2SCC(=O)c2ccccc2)cc1`, the cell number change came out at 4.64%. Moreover, the AC50 under setting [1] is 5.17 nM [falling, full curve, poor fit].

`N#Cc1ccc(OCc2nnc3n2CCCCC3)cc1`: the AC50 by setting is: under setting [2], 2910 nM [falling, single point]; under setting [1], 6510 nM [falling, single point].

As to `O=C(COC(=O)c1cc(=O)c2ccccc2o1)NC1CCCCC1`, the cell number change is -17.9%. Moreover, the AC50 under setting [2] is 651 nM [falling, partial curve, poor fit]. In addition, the AC50 under setting [1] was 6510 nM [falling, partial curve, poor fit].

On to `COc1ccc2[nH]c(CN3CCN(CC=C(C)C)C(CCO)C3)c(C)c2c1` (configuration not stated), for which the cell number change is -24.5%.

With `Cc1cc(C)c[n+](-c2[nH]c(=O)sc2/C=N/N=C(\N)[S-])c1`, the cell number change is -26.9%. Under setting [1], the AC50 was 116 nM [falling, full curve, poor fit].

Consider `Cc1cc2c(cc1C)NC(c1c(C)n(C)n(-c3ccccc3)c1=O)C1=C(CC(C)(C)CC1=O)N2` (configuration not stated), for which the AC50 is 6510 nM [rising, single point] under setting [2] and 5170 nM [rising, partial curve, poor fit] under setting [1].

Regarding `CC(C)(C)NC(=O)CSc1nc(Cc2ccccc2)nc2ccccc12`, the cell number change is -18.3%. Besides, the AC50 under setting [1] was 6510 nM [falling, partial curve].

Take `CC(=O)Nc1ccc(NS(=O)(=O)c2ccc(OC(C)C(=O)N3CCOCC3)cc2)cc1` (configuration not stated): the cell number change is -25.1%. Further, the AC50 under setting [2] was 3660 nM [falling, full curve, poor fit]. Besides, under setting [1], the AC50 is 1840 nM [falling, partial curve].

Turning to `COc1ccc(-c2c(-c3cc(OC)cc(OC)c3)n(C)c3ccc(-c4cc(F)cc(OC)c4)cc23)cc1`, the cell number change amounted to 0.791%.

For `COc1ccc(-c2cc(C(=O)OCC(=O)NC(C)C)c3ccccc3n2)cc1`, the cell number change stood at 59.2%. Moreover, the AC50 under setting [2] is 1640 nM [rising, full curve]. In addition, the AC50 under setting [1] is 2910 nM [rising, full curve, poor fit].

Consider `CC(C)(C)C(=O)N1CCN(c2nc3ccccc3s2)CC1`, for which the cell number change was determined as 6.92%. Also, the AC50 under setting [1] was 20600 nM [rising, partial curve].

For `Cc1cccc(NS(=O)(=O)c2cccc(C(=O)N3CC(C)OC(C)C3)c2)c1` (configuration not stated), the cell number change amounted to 148%. Further, under setting [2], the AC50 is 29100 nM [rising, single point]. Under setting [1], the AC50 is 29100 nM [rising, single point].

For `CC(C)(C)NS(=O)(=O)c1cccc(S(=O)(=O)c2cccc(S(=O)(=O)NC(C)(C)C)c2)c1`, the cell number change was -13.6%. For the same compound, the AC50 under setting [1] is 3260 nM [rising, single point].

As to `Cc1nc2ccc(N)cc2s1`, the cell number change was determined as 22.4%. Further, the AC50 under setting [1] is 14600 nM [falling, partial curve].

Consider `CCN(C(=O)C(=O)c1c[nH]c2ccccc12)c1ccccc1`, for which the cell number change was determined as 27%. In addition, under setting [2], the AC50 is 2310 nM [rising, full curve, poor fit]. The AC50 under setting [1] was 29100 nM [rising, single point].

Consider `CC1=CC(C2CC(=O)N(c3ccccc3C)C2=O)CC2C(=O)N(c3ccccc3C)C(=O)C12` (configuration not stated), for which the AC50 under setting [2] was 6510 nM [rising, single point].

Consider `O=c1cc(-c2ccccc2)nc(SCc2ccc(F)cc2)[nH]1`, for which the cell number change is -0.576%.

Regarding `CCc1[nH]nc2c1C(c1cccc(OC(=O)N3CCOCC3)c1)C(C#N)=C(N)O2` (configuration not stated), the AC50 under setting [2] is 3660 nM [falling, partial curve, poor fit].

For the compound `CCc1nnc(NS(=O)(=O)c2ccc(NC(=O)CCC(=O)O)cc2)s1`, the cell number change worked out at 8.77%. For the same compound, the AC50 under setting [1] is 29100 nM [rising, partial curve, poor fit].

As for `CCOc1cc(N2CCOCC2)c(OCC)cc1NC(=O)COC(=O)COc1ccc(C#N)cc1`, the cell number change turned out to be 12.9%. The AC50 under setting [1] is 51.7 nM [rising, full curve, poor fit].

For `O=C(c1cccc(S(=O)(=O)Nc2ccc(Br)cc2)c1)N1CCCC1`, the cell number change was -43.2%. Also, the AC50 under setting [2] is 7310 nM [falling, partial curve]. The AC50 under setting [1] is 23100 nM [falling, single point].

Take `CCOC(=O)Cc1cc(=O)n2[nH]c(-c3ccc(C)cc3)cc2n1`: the AC50 runs as follows: under setting [2], 116 nM [falling, full curve, poor fit]; under setting [1], 651 nM [falling, full curve].

Regarding `O=C(O/N=C(\c1ccccc1)c1ccccn1)c1cccc2ccccc12`, the cell number change was -46.5%. For the same compound, under setting [2], the AC50 was 291 nM [falling, full curve]. Moreover, the AC50 under setting [1] was 29100 nM [falling, partial curve, poor fit].

With `COc1ccc([C@H]2CC(=O)C=C(c3cccc(F)c3OC)C2)cc1`, the cell number change is -5.54%. For the same compound, the AC50 under setting [1] was 517 nM [rising, full curve, poor fit].

As to `COc1ccc(-c2cn(-c3ccc(SC(F)F)cc3)c3[n+]2CCC3)cc1OC`, the cell number change was found to be 6.12%. Besides, under setting [1], the AC50 was 4.61 nM [rising, full curve, poor fit].

On to `CC1=NN(C(=O)c2cccc(Cn3nc(C)c([N+](=O)[O-])c3C)c2)C(O)(C(F)(F)F)C1` (configuration not stated), for which the AC50 under setting [2] was 731 nM [rising, single point].

Take `CN(C)/C=C(\C#N)C(=O)N/N=C(\CC(=O)C(F)(F)F)c1ccco1`: the cell number change worked out at 13.6%. Further, the AC50 under setting [1] is 731 nM [falling, single point].

As for `C=CCn1c(O)c2ccc(C(=O)N=NC(=O)COc3ccc(OC)cc3)cc2c1O`, the cell number change is -21%. In addition, the AC50 under setting [1] was 29100 nM [rising, single point].

`Cc1cc(C)c(C#N)c(SCS(=O)Cc2ccc(Cl)cc2)n1` (configuration not stated): the cell number change is -12.6%. Also, under setting [2], the AC50 was 517 nM [rising, partial curve, poor fit]. Further, the AC50 under setting [1] was 651 nM [rising, partial curve, poor fit].

Turning to `C=CCn1c(=O)c(C(=O)NCc2ccccc2Cl)c(O)c2ccccc21`, the cell number change came out at 9.97%. For the same compound, the AC50 under setting [1] is 29100 nM [falling, single point].

For the compound `Cc1nc(NC(=O)c2cccc(-c3cc4ccccc4oc3=O)c2)ccc1Br`, the cell number change was -47.7%. In addition, the AC50 under setting [2] is 20600 nM [falling, single point].

For `CC(NC(=O)C1=CC=CN2CCS(=O)(=O)N=C12)c1ccc(Cl)cc1Cl` (configuration not stated), the cell number change amounted to 1.03%. Besides, the AC50 under setting [1] was 23.1 nM [falling, full curve, poor fit].

With `COc1ccc(C2CC(=O)Nc3sc(=N)c4c(N)c(C#N)c(N)nc4c32)cc1OC` (configuration not stated), the cell number change came out at 0.938%. Under setting [1], the AC50 is 20600 nM [rising, single point].
